Assay [1] has as its target T1, FRB-tagged Mss4 (bait at ER–PM contact sites) (Saccharomyces cerevisiae) (UniProt P38994).
T1 sequence: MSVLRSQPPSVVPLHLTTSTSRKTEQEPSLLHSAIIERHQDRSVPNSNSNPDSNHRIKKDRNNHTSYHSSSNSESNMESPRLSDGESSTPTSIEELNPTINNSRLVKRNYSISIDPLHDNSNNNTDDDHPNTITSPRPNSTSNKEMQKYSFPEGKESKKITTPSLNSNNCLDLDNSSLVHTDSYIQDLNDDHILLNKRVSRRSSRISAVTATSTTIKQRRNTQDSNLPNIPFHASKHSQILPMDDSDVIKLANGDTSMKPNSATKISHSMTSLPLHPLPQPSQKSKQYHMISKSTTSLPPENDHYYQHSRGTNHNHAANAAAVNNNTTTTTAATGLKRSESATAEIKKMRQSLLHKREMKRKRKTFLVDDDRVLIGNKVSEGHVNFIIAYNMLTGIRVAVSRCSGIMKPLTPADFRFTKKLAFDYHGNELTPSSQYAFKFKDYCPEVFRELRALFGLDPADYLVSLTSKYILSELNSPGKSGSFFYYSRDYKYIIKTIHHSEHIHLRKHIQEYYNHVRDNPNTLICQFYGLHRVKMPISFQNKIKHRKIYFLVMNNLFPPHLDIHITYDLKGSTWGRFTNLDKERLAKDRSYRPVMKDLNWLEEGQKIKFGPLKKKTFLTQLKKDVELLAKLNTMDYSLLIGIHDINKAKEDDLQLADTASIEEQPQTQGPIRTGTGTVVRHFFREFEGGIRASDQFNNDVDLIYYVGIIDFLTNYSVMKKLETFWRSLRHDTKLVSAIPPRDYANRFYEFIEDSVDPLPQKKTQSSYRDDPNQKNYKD
Kind of assay: enrichment of the prey at a bait confined to ER–PM contact sites by chemically induced dimerization (TIRFM); NG2–PIP4K2C HEK293A cells transfected with FKBP–CyB5, mCherry–MAPPER and an FRB-tagged bait; 1 µM rapamycin confines the bait to ER–PM contact sites; NG2–PIP4K2C intensity (ER:PM/PM) followed by time-lapse TIRFM.

The chains behind the UniProt entries cited, without tags or fusion partners.
UniProt Q99755: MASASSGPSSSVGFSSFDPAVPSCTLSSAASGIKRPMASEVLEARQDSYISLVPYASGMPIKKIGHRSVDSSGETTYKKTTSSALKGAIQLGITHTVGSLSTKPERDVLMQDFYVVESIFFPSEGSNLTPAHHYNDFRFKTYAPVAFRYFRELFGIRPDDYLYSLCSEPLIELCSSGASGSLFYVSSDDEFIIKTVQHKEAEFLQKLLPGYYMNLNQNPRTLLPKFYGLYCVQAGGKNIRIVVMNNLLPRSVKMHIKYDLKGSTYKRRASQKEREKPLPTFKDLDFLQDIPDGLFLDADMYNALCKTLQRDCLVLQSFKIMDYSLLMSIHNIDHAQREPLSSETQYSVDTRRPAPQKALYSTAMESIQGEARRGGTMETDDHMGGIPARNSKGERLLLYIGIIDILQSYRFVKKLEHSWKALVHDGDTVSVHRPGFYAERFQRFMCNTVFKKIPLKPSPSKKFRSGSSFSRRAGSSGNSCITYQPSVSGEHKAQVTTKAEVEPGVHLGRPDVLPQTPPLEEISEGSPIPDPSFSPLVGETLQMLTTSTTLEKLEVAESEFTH

For assay [2], the target named is FRB-tagged PIP5K1A (bait at ER–PM contact sites) (human) (UniProt Q99755). The description is as above.

These are yes or no findings as the source states them, for the method shown. Some binding calls cover weakened binding; strength is not graded here. Tags and fused reporters may be left off the sequences shown.

B1: NG2–PIP4K2C, endogenous PIP4K2C tagged with split NeonGreen2 (enzyme, UniProt Q8TBX8 1-421)
chain: MASSSVPPATVSAATAGPGPGFGFASKTKKKHFVQQKVKVFRAADPLVGVFLWGVAHSINELSQVPPPVMLLPDDFKASSKIKVNNHLFHRENLPSHFKFKEYCPQVFRNLRDRFGIDDQDYLVSLTRNPPSESEGSDGRFLISYDRTLVIKEVSSEDIADMHSNLSNYHQYIVKCHGNTLLPQFLGMYRVSVDNEDSYMLVMRNMFSHRLPVHRKYDLKGSLVSREASDKEKVKELPTLKDMDFLNKNQKVYIGEEEKKIFLEKLKRDVEFLVQLKIMDYSLLLGIHDIIRGSEPEEEAPVREDESEVDGDCSLTGPPALVGSYGTSPEGIGGYIHSHRPLGPGEFESFIDVYAIRSAEGAPQKEVYFMGLIDILTQYDAKKKAAHAAKTVKHGAGAEISTVHPEQYAKRFLDFITNIFA
For the molecule B1, the binding result in assay [1] is listed as “no binding”; in assay [2], “binds”.

These data come from paper PMC10482388, “A novel homeostatic mechanism tunes PI(4,5)P2-dependent signaling at the plasma membrane” (Journal of Cell Science, 2023).
